In US20220193241A1, “AGENT TARGETING DOUBLE-MEMBRANE ORGANELLE DNA” (CHIBA-PREFECTURE, priority 2019, published 2022):

System: mitochondria
Experiment: Intracellular localization of pyridinium-indole derivatives with or without TPP
Format: cell-based
Settings: 2 hours and 48 hours after treatment

Structure (SMILES)	colocalization with mitochondria
O=C(O)CCCCn1cc(/C=C/c2cc[n+](CCCC[P+](c3ccccc3)(c3ccccc3)c3ccccc3)cc2)c2ccccc21 [pyridinium-indole derivative-TPP]	colocalized with mitochondria
C[n+]1ccc(/C=C/c2cn(CCCCC(=O)O)c3ccccc23)cc1 [pyridinium-indole derivative]	not found
